Binding data for 9 substances are collected here from article PMC13080232.

Sequences of proteins named here, by UniProt entry; tags and fusion partners are left off. A change or cut given only in a name is not applied to a line headed by its entry. Residues count along the entry.
UniProt P21926: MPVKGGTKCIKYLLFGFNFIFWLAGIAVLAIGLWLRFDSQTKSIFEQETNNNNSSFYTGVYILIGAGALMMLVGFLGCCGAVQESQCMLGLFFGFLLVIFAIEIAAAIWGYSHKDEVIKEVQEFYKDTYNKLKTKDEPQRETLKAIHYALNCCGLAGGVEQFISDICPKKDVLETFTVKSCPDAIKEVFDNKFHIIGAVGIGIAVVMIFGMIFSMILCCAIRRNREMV
UniProt P16070, residues 21-742: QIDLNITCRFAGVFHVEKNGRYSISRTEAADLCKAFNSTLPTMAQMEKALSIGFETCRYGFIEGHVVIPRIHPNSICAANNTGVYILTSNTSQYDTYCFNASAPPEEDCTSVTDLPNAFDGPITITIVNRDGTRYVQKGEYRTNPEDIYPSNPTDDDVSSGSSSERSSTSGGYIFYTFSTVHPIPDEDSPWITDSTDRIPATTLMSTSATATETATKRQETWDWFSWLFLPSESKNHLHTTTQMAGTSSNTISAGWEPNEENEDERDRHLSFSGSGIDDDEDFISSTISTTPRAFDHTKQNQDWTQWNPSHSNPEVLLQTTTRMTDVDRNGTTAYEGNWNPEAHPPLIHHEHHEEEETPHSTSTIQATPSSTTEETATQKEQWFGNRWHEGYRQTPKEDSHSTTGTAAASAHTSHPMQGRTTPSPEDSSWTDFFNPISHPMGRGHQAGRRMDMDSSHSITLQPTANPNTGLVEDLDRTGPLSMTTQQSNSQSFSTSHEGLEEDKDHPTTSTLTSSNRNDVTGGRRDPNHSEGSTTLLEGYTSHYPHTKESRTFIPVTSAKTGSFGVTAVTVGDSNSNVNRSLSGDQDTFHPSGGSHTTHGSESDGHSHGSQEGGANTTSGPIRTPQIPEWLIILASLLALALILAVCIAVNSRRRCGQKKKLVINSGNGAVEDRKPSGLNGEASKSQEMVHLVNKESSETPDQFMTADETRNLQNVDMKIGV
UniProt P15529, residues 35-392: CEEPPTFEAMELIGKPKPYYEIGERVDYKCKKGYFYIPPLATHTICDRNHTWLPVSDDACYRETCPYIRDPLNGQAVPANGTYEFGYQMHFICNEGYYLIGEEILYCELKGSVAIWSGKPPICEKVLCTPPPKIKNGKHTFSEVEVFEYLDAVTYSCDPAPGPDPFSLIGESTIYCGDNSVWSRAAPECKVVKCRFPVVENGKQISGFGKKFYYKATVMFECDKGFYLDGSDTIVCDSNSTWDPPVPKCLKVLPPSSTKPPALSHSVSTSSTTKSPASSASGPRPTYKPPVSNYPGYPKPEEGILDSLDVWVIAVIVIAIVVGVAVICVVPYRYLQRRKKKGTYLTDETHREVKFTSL
UniProt O75575: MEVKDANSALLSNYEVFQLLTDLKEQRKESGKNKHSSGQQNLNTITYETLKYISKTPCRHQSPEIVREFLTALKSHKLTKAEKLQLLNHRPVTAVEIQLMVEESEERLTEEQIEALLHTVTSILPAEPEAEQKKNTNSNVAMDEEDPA
UniProt Q13467, residues 27-585: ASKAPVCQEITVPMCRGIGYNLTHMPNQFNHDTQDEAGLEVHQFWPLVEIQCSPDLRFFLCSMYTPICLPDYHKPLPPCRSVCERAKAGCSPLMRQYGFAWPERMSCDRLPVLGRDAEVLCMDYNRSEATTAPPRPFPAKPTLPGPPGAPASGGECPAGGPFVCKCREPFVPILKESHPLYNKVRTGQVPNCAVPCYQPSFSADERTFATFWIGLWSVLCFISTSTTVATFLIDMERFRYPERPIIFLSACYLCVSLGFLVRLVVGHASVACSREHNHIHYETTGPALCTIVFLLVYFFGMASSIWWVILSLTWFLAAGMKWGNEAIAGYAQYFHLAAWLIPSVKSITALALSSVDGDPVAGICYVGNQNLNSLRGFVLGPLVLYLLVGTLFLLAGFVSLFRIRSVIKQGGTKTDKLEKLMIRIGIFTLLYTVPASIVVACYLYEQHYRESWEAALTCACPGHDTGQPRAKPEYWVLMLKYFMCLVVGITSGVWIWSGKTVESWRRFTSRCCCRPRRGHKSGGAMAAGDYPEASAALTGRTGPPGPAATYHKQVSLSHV
UniProt Q15004: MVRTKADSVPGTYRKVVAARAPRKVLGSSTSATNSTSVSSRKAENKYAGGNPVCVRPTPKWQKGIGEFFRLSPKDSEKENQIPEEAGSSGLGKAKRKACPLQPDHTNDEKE
UniProt P36021: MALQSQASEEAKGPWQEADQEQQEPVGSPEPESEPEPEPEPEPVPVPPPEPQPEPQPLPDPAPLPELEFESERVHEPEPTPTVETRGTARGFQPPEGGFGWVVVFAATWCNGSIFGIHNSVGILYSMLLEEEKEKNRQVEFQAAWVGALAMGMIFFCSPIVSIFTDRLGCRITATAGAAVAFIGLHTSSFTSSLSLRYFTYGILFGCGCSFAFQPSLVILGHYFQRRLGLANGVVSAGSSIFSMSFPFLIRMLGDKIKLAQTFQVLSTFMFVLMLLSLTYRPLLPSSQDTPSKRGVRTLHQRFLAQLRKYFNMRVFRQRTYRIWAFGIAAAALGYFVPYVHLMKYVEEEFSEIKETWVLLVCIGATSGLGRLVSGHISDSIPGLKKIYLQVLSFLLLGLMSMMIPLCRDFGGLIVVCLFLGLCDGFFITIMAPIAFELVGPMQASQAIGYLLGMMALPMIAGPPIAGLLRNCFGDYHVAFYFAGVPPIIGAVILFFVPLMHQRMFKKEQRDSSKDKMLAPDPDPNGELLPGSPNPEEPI
UniProt O95858: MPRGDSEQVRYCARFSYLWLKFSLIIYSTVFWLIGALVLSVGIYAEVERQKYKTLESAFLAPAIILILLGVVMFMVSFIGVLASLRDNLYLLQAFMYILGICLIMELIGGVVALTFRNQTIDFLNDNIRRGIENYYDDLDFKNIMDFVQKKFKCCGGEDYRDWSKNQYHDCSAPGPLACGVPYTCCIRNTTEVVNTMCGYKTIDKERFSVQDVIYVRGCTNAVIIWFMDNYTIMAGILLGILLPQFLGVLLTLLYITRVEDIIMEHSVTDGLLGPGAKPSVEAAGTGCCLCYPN
UniProt P29317, residues 24-976: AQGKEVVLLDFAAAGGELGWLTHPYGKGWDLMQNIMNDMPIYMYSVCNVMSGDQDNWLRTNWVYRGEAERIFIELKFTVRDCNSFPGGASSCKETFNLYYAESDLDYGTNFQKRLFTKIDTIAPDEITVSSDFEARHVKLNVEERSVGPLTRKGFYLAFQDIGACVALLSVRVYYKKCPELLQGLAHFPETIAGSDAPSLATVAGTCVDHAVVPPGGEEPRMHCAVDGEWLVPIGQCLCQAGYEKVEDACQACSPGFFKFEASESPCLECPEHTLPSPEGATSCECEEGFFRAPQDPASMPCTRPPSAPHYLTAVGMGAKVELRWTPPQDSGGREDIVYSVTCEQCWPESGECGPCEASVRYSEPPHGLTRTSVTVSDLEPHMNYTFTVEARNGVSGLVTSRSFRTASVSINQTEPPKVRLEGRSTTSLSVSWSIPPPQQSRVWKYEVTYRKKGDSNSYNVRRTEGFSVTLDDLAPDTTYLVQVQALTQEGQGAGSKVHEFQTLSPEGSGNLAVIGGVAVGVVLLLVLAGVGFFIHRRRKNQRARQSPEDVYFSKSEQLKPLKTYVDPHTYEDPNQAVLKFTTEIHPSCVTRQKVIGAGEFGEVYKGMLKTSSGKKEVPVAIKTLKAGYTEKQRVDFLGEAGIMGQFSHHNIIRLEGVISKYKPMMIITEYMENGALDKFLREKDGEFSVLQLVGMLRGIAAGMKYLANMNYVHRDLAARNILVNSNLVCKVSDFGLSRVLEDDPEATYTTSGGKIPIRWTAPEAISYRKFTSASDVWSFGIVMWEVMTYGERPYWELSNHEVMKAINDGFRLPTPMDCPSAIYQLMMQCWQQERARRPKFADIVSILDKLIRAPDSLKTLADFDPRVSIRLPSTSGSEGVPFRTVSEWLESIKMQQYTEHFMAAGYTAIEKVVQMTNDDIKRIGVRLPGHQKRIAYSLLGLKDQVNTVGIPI
UniProt P05556: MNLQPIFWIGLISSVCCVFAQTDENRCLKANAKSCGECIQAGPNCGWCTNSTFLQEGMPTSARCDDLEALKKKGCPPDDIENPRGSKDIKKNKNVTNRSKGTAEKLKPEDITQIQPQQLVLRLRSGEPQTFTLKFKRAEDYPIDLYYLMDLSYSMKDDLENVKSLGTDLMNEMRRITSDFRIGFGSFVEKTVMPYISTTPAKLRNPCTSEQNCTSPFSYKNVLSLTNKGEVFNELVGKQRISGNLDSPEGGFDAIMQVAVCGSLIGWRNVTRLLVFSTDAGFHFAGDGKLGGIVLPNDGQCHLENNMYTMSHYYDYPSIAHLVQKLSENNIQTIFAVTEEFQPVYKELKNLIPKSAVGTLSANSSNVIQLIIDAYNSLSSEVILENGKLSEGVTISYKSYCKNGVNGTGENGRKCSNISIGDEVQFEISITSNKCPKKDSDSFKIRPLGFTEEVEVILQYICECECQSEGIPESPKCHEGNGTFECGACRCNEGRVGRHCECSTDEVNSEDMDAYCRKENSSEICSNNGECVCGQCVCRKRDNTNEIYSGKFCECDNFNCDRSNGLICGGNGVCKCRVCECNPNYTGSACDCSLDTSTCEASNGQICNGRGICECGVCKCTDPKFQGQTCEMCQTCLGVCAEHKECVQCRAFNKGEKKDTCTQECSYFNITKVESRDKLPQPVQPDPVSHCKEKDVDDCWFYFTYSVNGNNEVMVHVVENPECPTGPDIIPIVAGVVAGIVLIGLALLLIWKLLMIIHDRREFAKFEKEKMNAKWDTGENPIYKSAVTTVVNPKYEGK

Results are given in words; binding and its absence hold for the method and conditions named. In cells and extracts the contact can be indirect. Here binding means that the protein was enriched with, or labelled near, the bait; the list need not be complete.

This experiment deals with CD9:TurboID fusion protein (human) (UniProt P21926). Put plainly: proximity labelling; CD9:TurboID-V5 stably expressed in CD9-/- A549 cells; 50 μM biotin for 30, 60 or 240 min; cells uninfected or infected with N. meningitidis MC58 or S. aureus SH1000 (MOI = 50); RIPA lysis, streptavidin bead pull-down, on-bead digestion, LC-MS/MS with LFQ; enrichment against cytosolic TurboID (FDR 0.01, s0 = 2), infected against uninfected (FDR 0.05, s0 = 0.1).
As to CD44 (from UniProt P16070 21-742), the binding result is “binds”. On to CD46 (from UniProt P15529 35-392), for which the binding result is on record as “binds”. As to “CGRP receptor component (from UniProt O75575 1-148)”, the binding result is listed as “binds”. For the substance “Frizzled class receptor 5 (from UniProt Q13467 27-585)”, the binding result is “binds”. In the case of “PCNA clamp-associated factor (from UniProt Q15004 1-111)”, the binding result is “binds”.

Turning to “Solute carrier family 16 member 2 (from UniProt P36021 1-539)”, the binding result is “binds”. Then Tspan15 (from UniProt O95858 1-294), with “binds”; and “ephrin type-A receptor 2 (from UniProt P29317 24-976)”, with “binds”. With “integrin β1 (from UniProt P05556 21-798)”, the binding entry is recorded as “binds”.
